This is an account of results in paper PMC8421641.

By UniProt entry, the sequences of proteins in these tests, tags left out. Where a name states a change or a piece, a line headed by the entry shows the natural chain unless it says otherwise. Residues count along the entry.
UniProt P07585, residues 31-359: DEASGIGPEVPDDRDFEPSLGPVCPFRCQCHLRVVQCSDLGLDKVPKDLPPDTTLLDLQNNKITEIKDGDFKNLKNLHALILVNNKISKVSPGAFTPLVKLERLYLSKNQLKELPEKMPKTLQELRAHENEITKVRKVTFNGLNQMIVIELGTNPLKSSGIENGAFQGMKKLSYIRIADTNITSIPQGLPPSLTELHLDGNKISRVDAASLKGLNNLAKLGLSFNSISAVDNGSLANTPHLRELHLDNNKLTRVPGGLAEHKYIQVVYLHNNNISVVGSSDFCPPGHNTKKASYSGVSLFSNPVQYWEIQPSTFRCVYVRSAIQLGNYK
UniProt P05556: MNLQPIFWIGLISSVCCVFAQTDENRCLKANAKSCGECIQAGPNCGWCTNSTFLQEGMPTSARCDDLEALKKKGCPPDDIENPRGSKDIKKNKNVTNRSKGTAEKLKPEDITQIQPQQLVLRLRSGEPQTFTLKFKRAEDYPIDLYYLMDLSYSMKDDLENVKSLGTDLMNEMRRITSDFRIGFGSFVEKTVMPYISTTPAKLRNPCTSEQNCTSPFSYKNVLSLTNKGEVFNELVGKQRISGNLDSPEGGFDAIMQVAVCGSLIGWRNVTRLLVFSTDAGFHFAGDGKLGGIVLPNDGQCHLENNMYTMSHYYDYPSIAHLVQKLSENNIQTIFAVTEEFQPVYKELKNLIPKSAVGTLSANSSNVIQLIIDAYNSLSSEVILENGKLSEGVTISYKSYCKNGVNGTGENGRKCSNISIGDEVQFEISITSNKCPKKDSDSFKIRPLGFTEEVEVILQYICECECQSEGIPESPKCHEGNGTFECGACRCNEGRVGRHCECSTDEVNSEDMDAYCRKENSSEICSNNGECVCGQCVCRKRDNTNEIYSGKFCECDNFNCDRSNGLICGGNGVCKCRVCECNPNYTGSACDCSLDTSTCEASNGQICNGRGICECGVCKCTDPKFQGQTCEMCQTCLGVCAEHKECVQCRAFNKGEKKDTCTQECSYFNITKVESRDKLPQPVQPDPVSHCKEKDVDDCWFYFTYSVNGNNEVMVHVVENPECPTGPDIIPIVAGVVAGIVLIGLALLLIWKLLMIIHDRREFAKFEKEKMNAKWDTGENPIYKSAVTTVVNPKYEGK

These are yes or no findings as the source states them, for the method shown. In cells and extracts the contact can be indirect. Some results given as binding are weak or reduced against the parent protein; the word gives no strength.

This assay concerns the target Decorin (UniProt P07585). In words: co-IP; cell lysate (Co-IP kit buffer with protease inhibitors), pre-cleared with protein A/G agarose beads; primary antibody at 4°C overnight, then Protein A/G beads at 4°C for 12 h; western blot; IP with DCN antibody, blot for integrin β1; cell line not stated. (Immunoblotting shows a protein as a band on a membrane.)

As to “Integrin β1 (from UniProt P05556 21-798) (receptor)”, the binding result is “binds”.
